Reference: paper PMC5630600
No constants are given. Whether binding was seen depends on the method and setting. In cells and extracts the contact can be indirect. Some entries that bind do so weakly or less than the wild type. One block for each molecule: values may come before it.

Amino acid sequences for entries named in this document (tags omitted).
UniProt P27695: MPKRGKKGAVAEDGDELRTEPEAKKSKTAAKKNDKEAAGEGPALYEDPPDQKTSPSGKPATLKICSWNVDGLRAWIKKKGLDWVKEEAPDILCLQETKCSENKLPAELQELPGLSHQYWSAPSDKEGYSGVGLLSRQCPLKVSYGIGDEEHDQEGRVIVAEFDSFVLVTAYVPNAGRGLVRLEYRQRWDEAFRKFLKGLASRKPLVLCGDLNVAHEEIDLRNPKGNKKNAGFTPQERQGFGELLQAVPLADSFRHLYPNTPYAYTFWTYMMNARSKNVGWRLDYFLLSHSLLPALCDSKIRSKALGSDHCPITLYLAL
UniProt P17844: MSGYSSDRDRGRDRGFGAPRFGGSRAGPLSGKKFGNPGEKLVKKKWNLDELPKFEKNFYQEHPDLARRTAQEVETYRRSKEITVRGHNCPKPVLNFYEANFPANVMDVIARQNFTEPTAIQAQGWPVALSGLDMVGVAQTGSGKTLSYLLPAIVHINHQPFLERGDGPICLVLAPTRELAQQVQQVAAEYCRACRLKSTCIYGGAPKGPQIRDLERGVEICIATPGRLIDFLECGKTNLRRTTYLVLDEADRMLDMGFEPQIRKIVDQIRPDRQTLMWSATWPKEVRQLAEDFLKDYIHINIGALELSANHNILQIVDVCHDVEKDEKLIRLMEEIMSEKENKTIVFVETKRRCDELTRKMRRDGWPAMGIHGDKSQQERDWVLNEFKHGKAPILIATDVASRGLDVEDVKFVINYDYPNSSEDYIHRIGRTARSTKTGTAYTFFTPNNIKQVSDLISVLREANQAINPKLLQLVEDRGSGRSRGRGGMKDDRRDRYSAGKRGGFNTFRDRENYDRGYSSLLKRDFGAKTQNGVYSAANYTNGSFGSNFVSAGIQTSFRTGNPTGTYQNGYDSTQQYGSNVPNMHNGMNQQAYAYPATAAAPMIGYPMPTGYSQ
UniProt P06748: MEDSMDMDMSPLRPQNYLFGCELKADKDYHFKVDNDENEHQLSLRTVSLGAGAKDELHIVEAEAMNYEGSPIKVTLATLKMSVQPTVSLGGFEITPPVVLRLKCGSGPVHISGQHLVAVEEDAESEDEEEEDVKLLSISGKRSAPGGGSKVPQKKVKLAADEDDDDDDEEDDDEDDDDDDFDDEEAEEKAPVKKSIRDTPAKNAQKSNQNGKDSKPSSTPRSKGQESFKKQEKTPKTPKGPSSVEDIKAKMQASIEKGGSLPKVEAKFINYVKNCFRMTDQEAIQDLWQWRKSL

Columns and labels:
[1] = biological target: apurinic/apyrimidinic endonuclease 1 (APE1), endogenous in HeLa cells (human (endogenous in HeLa)) (UniProt P27695); assay: proximity ligation; in situ PLA (Duolink) in HeLa cells on coverslips, monoclonal anti-APE1 with an antibody to the partner (polyclonal anti-DROSHA ab85027); untreated or 1 mM H2O2 for 15, 30, 60 min, or MMS
[2] = biological target: APE1 as immunoprecipitated in the Co-IP experiments (human) (UniProt P27695); assay: co-IP; Co-IP (Supplementary Fig. 4f); cells, antibodies and conditions not told in the text shown

binding [1]: no binding
Molecule: DEAD-box RNA helicase p68 (DDX5) (from UniProt P17844 1-614)

binding [2]: binds | binding [1]: binds
Molecule: nucleophosmin 1 (NPM1) (from UniProt P06748 1-294)

binding [1]: no binding
B1: DGCR8 (DiGeorge critical region 8) (protein, UniProt Q8WYQ5 1-773)
chain: METDESPSPLPCGPAGEAVMESRARPFQALPREQSPPPPLQTSSGAEVMDVGSGGDGQSELPAEDPFNFYGASLLSKGSFSKGRLLIDPNCSGHSPRTARHAPAVRKFSPDLKLLKDVKISVSFTESCRSKDRKVLYTGAERDVRAECGLLLSPVSGDVHACPFGGSVGDGVGIGGESADKKDEENELDQEKRVEYAVLDELEDFTDNLELDEEGAGGFTAKAIVQRDRVDEEALNFPYEDDFDNDVDALLEEGLCAPKKRRTEEKYGGDSDHPSDGETSVQPMMTKIKTVLKSRGRPPTEPLPDGWIMTFHNSGVPVYLHRESRVVTWSRPYFLGTGSIRKHDPPLSSIPCLHYKKMKDNEEREQSSDLTPSGDVSPVKPLSRSAELEFPLDEPDSMGADPGPPDEKDPLGAEAAPGALGQVKAKVEVCKDESVDLEEFRSYLEKRFDFEQVTVKKFRTWAERRQFNREMKRKQAESERPILPANQKLITLSVQDAPTKKEFVINPNGKSEVCILHEYMQRVLKVRPVYNFFECENPSEPFGASVTIDGVTYGSGTASSKKLAKNKAARATLEILIPDFVKQTSEEKPKDSEELEYFNHISIEDSRVYELTSKAGLLSPYQILHECLKRNHGMGDTSIKFEVVPGKNQKSEYVMACGKHTVRGWCKNKRVGKQLASQKILQLLHPHVKNWGSLLRMYGRESSKMVKQETSDKSVIELQQYAKKNKPNLHILSKLQEEMKRLAEEREETRKKPKMSIVASAQPGGEPLCTVDV
